# Reference: the supplement of paper PMC7024190
# Where a name gives a salt, the structure may show the parent alone. The list shows a part of the results. Single values are uncertain here, since repeats match poorly.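 A first-round screen of about ten thousand compounds sought those raising reporter output, using human embryonic kidney cells briefly transfected with a plasmid carrying a Renilla luciferase gene driven by the HSV-TK promoter.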
# Test system: HEK 293FT
# Assay: log relative Renilla luciferase luminescence (reporter expression vs reference, reference not stated) (log (base not stated)); higher = higher recombinant reporter expression
# Details: 10 µM; time after transfection 48 h
row,SMILES,log
1,CCOc1ccc2nc(S(N)(=O)=O)sc2c1 [ethoxzolamide],0.0797
2,O=c1oc2cc(O)ccc2s1 [tioxolone],-0.311
3,CC1/C=C/C=C/C=C/C=C/C=C/C=C/C=C/C(OC2O[C@H](C)[C@@H](O)[C@H](N)[C@@H]2O)CC(O)C(C(=O)O)C(O)CC(=O)CC(O)CC(O)CC(O)CC(=O)CCCC(=O)CC(=O)OC1C(C)CC(C)C(O)CC(=O)c1ccc(N)cc1 (some centres undefined) [candicidin],-0.149
4,C/C(=C\C(=O)OCCCCCCCCC(=O)O)C[C@@H]1OC[C@H](C[C@@H]2O[C@H]2[C@@H](C)[C@H](C)O)[C@@H](O)[C@H]1O [mupirocin],0.0654
5,N[C@@H](CSCSC[C@H](N)C(=O)O)C(=O)O [djenkolic acid],0.0182
6,CN/C(=N\CCSCc1nc[nH]c1C)NC#N [cimetidine],-0.0611
7,O=C(O)c1cc(/N=N/c2ccc(S(=O)(=O)Nc3ccccn3)cc2)ccc1O [sulfasalazine],-0.0721
8,CC(N)CCCC(C)(C)O (centres undefined) [heptaminol hydrochloride],0.109
9,CN1CCCN=C1/C=C/c1cccc(O)c1 [oxantel pamoate],0.162
10,N#CCC(=O)NN [cyacetacide],0.176
11,Oc1cccc(O)c1 [resorcinol],0.0391
12,Cc1cc(O)cc(C)c1Cl [chloroxylenol],-0.133
13,CC(=O)N(c1onc(C)c1C)S(=O)(=O)c1ccc(N)cc1 [sulfisoxazole acetyl],-0.0767
14,C=C1CCC(C2CC(=O)OC2=O)C(=O)CCC2C1CC2(C)C (centres undefined),0.0544
15,CC=CC1=C(C(=O)O)N2C(=O)[C@@H](NC(=O)[C@H](N)c3ccc(O)cc3)[C@H]2SC1 [cefprozil],0.109
16,O=C1c2ccccc2C(=O)C1c1ccc(Br)cc1 [bromindione],0.0751
17,NC(=O)CC[C@H](N)C(=O)O [glutamine (l)],-0.3
18,Cc1cc2c(s1)Nc1ccccc1N=C2N1CCN(C)CC1 [olanzapine],-0.177
19,CC1(C)C(O[C@@H]2OC[C@@H](O)[C@H](O)[C@H]2O)CC[C@]23CC24CC[C@]2(C)[C@@H]([C@@]5(C)CC[C@@H](C(C)(C)O)O5)[C@H](O)C[C@@]2(C)C4C[C@@H](O[C@@H]2O[C@H](CO)[C@@H](O)[C@H](O)[C@H]2O)C13 (some centres undefined) [astragaloside iv],0.0536
20,CCOC(=S)SSC(=S)OCC [dixanthogen],0.0954
21,CC(C)OC(=O)C(C)(C)Oc1ccc(C(=O)c2ccc(Cl)cc2)cc1 [fenofibrate],-0.0673
22,CC(C)(C)CC(C)(C)c1cc(Cc2cc(C(C)(C)CC(C)(C)C)cc(-n3nc4ccccc4n3)c2O)c(O)c(-n2nc3ccccc3n2)c1 [bisoctrizole],-0.124
23,NC(=O)c1cnccn1 [pyrazinamide],-0.0483
24,CC(=O)c1ccc[nH]1 [2-acetylpyrrole],0.151
25,O=C(CCNNC(=O)c1ccncc1)NCc1ccccc1 [nialamide],-0.032
26,Cc1nc2ccccn2c(=O)c1CCN1CCC(C(=O)c2ccc(F)cc2)CC1 [pirenperone],-0.233
27,COc1cccc2c1C(=O)c1c(O)c3c(c(O)c1C2=O)C[C@@](O)(C(=O)CO)C[C@@H]3O[C@H]1C[C@H](N)[C@@H](O)[C@H](C)O1 [epirubicin hydrochloride],-1.12

# 2 entries from above, set out differently:
row | SMILES | log
3 | CC1/C=C/C=C/C=C/C=C/C=C/C=C/C=C/C(OC2O[C@H](C)[C@@H](O)[C@H](N)[C@@H]2O)CC(O)C(C(=O)O)C(O)CC(=O)CC(O)CC(O)CC(O)CC(=O)CCCC(=O)CC(=O)OC1C(C)CC(C)C(O)CC(=O)c1ccc(N)cc1 (some centres undefined) [candicidin] | -0.149
11 | Oc1cccc(O)c1 [resorcinol] | 0.0391

# (more compounds)

row,SMILES,log
1,COc1ccc2c(c1)CC[C@@H]1[C@@H]2CC[C@]2(C)[C@@H](O)CC[C@@H]12 [estradiol methyl ether],-0.00278
2,O[C@H]1[C@H](O)[C@@H](O)[C@H](O)[C@@H](O)[C@H]1O [inositol],0.0605
3,CCCN(CCC)CCc1cccc2c1CC(=O)N2 [ropinirole hydrochloride],0.00202
4,C/C=C/c1ccc(OC)cc1 [anethole],0.248
5,C=C(C)[C@@H]1CC[C@]2(CO)CC[C@]3(C)[C@H](CC[C@@H]4[C@@]5(C)CC[C@H](O)C(C)(C)[C@@H]5CC[C@]43C)[C@@H]12 [betulin],0.0127
6,CC(=O)O[C@H]1C(=O)[C@@]2(C)[C@H]([C@H](OC(=O)c3ccccc3)[C@]3(O)C[C@H](OC(=O)[C@H](O)[C@@H](NC(=O)c4ccccc4)c4ccccc4)C(C)=C1C3(C)C)[C@]1(OC(C)=O)CO[C@@H]1C[C@@H]2O [paclitaxel],0.318
7,CC1=C(/C=C/C(C)=C/C=C/C(C)=C/CO)C(C)(C)CCC1 [retinol],-0.0698
8,O=C(O)c1ccccc1OP(=O)(O)O [fosfosal],0.0728
9,COC(=O)c1c(C)cc(OC(=O)c2c(C)cc(O)c(C=O)c2O)c(C)c1O [atranorin],0.0881
10,C/C=C(/C(=C/C)c1ccc(O)cc1)c1ccc(O)cc1 [dienestrol],-0.0124
11,Cc1ncc([N+](=O)[O-])n1CC(C)O (centres undefined) [secnidazole],0.0363
12,C[C@]12CCC(=O)C=C1[C@@H]1C[C@@H]1[C@H]1[C@@H]3[C@@H]4C[C@@H]4[C@@]4(CCC(=O)O4)[C@@]3(C)CC[C@@H]12 [drospirenone],-0.232
13,Nc1cc(N2CCCCC2)nc(N)[n+]1[O-] [minoxidil],-0.0548
14,CC1(C)S[C@@H]2[C@H](NC(=O)[C@H](N)c3ccccc3)C(=O)N2[C@H]1C(=O)O [ampicillin sodium],-0.393
15,C=C[C@H]1CN2CC[C@H]1C[C@H]2[C@H](O)c1ccnc2ccc(OC)cc12 [quinine sulfate],0.0656
16,"O=C(/C=C/c1ccccc1)c1ccc(O[C@@H]2O[C@H](CO)[C@@H](O)[C@H](O)[C@H]2O)cc1O [2',4'-dihydroxychalcone 4'-glucoside]",0.098
17,O=c1n(CCCN2CCN(c3cccc(Cl)c3)CC2)nc2ccccn12 [trazodone hydrochloride],-0.0403
18,CC(=O)NCCCCCC(=O)O [acexamic acid],-0.0193
19,O=C(O)c1cc(=O)[nH]c(=O)[nH]1 [orotic acid],-1.34
20,COc1ccc([C@@H](C)C(=O)c2ccc(O)cc2O)cc1 [angolensin (r)],0.127
21,NC(=O)NCCC[C@H](N)C(=O)O [citrulline],0.158
22,O=c1oc2c(O)c(O)cc3c(=O)oc4c(O)c(O)cc1c4c23 [ellagic acid],-0.00801
23,O=C1NS(=O)(=O)c2ccccc21 [saccharin],-0.19
24,CC(=O)CC(c1ccccc1)c1c(O)c2ccccc2oc1=O (centres undefined) [warfarin],0.112
25,CCN(CC)CC(=O)Nc1c(C)cccc1C [lidocaine hydrochloride],-0.0915
26,CC(=O)OCC(=O)[C@@]12OC(C)(C)O[C@@H]1C[C@H]1[C@@H]3C[C@H](F)C4=CC(=O)C=C[C@]4(C)[C@@]3(F)[C@@H](O)C[C@@]12C [fluocinonide],0.138
27,c1ccc2c(CC3=NCCN3)cccc2c1 [naphazoline hydrochloride],-0.00978

# Among those listed so far, these contain an aryl methoxy group:
row,SMILES,log
27,COc1cccc2c1C(=O)c1c(O)c3c(c(O)c1C2=O)C[C@@](O)(C(=O)CO)C[C@@H]3O[C@H]1C[C@H](N)[C@@H](O)[C@H](C)O1 [epirubicin hydrochloride],-1.12
1,COc1ccc2c(c1)CC[C@@H]1[C@@H]2CC[C@]2(C)[C@@H](O)CC[C@@H]12 [estradiol methyl ether],-0.00278
4,C/C=C/c1ccc(OC)cc1 [anethole],0.248
15,C=C[C@H]1CN2CC[C@H]1C[C@H]2[C@H](O)c1ccnc2ccc(OC)cc12 [quinine sulfate],0.0656
20,COc1ccc([C@@H](C)C(=O)c2ccc(O)cc2O)cc1 [angolensin (r)],0.127

# Remaining list, next part:

row,SMILES,log
1,OCc1ccccc1O[C@@H]1O[C@H](CO)[C@@H](O)[C@H](O)[C@H]1O [salicin],0.0553
2,CN1C(CCl)Nc2cc(Cl)c(S(N)(=O)=O)cc2S1(=O)=O (centres undefined) [methyclothiazide],-0.0385
3,C=CC1=C(C(=O)O)N2C(=O)[C@@H](NC(=O)/C(=N\O)c3csc(N)n3)[C@H]2SC1 [cefdinir],0.00695
4,Cc1cn([C@H]2C=C[C@@H](CO)O2)c(=O)[nH]c1=O [stavudine],0.129
5,CC(=O)NS(=O)(=O)c1ccc(N)cc1 [sulfacetamide],0.0299
6,C=C1CC[C@@H]2[C@](C)(CO)[C@H](O)CC[C@@]2(C)[C@@H]1C/C=C1/C(=O)OC[C@H]1O [andrographolide],0.0243
7,"Oc1ccc([C@H]2Oc3cc(O)cc(O)c3C[C@H]2O)cc1 [epiafzelechin (2r,3r)(-)]",0.184
8,COc1cccc2c1C(=O)c1c(O)c3c(c(O)c1C2=O)C[C@@](O)(C(C)=O)C[C@@H]3O[C@H]1C[C@H](N)[C@H](O)[C@H](C)O1 [daunorubicin],-1.36
9,O=C(/C=C/c1ccc(O)cc1)c1ccc(O)cc1O [isoliquiritigenin],-0.301
10,Cc1c(NC(=O)c2cccnc2)c(=O)n(-c2ccccc2)n1C [nifenazone],0.0585
11,CS(=O)(=O)OCCCCOS(C)(=O)=O [busulfan],-0.0982
12,OCc1c[nH]c2ccccc12 [indole-3-carbinol],0.126
13,COc1ccc(-c2coc3c(O)c(O)c(OC)cc3c2=O)cc1 [dipteryxin],0.142
14,CC(O)Cn1cnc2c1c(=O)n(C)c(=O)n2C (centres undefined) [proxyphylline],0.0233
15,N[C@@H](Cc1c[nH]c2ccccc12)C(=O)O [tryptophan],-0.0373
16,O=C(OOC(=O)c1ccccc1)c1ccccc1 [benzoyl peroxide],-0.189
17,CCC1(C)OC(=O)N(C)C1=O (centres undefined) [paramethadione],-0.0757
18,NC(=O)CCCCC1CCSS1 (centres undefined) [lipoamide],0.0757
19,C=C(C)[C@H]1CC=C(C)CC1 [d-limonene],0.0954
20,NS(=O)(=O)c1cc2c(cc1C(F)(F)F)NCNS2(=O)=O [hydroflumethiazide],0.106
21,CN1C(=O)CC[C@H]1c1cccnc1 [cotinine],-0.376
22,CC[C@@H]1C(=O)OC[C@@H]1Cc1cncn1C [pilocarpine nitrate],0.0824
23,NC[C@@H]1O[C@@H](O[C@H]2[C@H](O)[C@@H](O[C@H]3O[C@H](CO)[C@@H](O)[C@H](N)[C@H]3O)[C@H](N)C[C@@H]2N)[C@@H](O)[C@H](O)[C@H]1O [kanamycin a sulfate],0.00732
24,CC1CC(OC(=O)c2ccccc2O)CC(C)(C)C1 (centres undefined) [homosalate],0.097
25,"CC(C)c1ccc2c(c1)CCC1[C@](C)(CN)CCC[C@]21C (some centres undefined) [18-aminoabieta-8,11,13-triene sulfate]",0.154
